Experimental data taken from PubChem BioAssay AID1347426 (Functional Genomics Laboratory (NCATS/FGL), 2020).
In all, about 31,000 sequences went through this assay and about 1,400 (4.5%) were called active.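 How the source made its calls: active means median seed-adjusted z-score above 1 or below -1; inactive means the rest.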 Some of the results follow.

Experiment: Novel Modifiers of Survival Motor Neuron (SMN) Protein: Gene Identification via Genome-wide siRNA Screen;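 further: luminescence tracks full-length SMN protein made from the SMN2 reporter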
Conditions: HEK293T SMN2-luciferase reporter, siRNA knockdown, 72 h; actives lie on both sides
Outline: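 HEK293T cells stably carrying an SMN2 promoter/splicing cassette–luciferase reporter were reverse-transfected with 1 pmol siRNA per well (druggable-genome library, 3 siRNAs per gene) and grown 72 h at 37 °C. Luminescence, normalized to negative-control siRNA and log10-transformed, was scored as MAD.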

Sequence | median seed-adjusted z-score
GCAAGGUCAUCGGAGACAATT against PDE2A | inactive: -0.2
GAUUCUGUGAGAUAGAUCATT against CRB1 | inactive: 0
UGAAGAUUAUGGAGUAUUATT against ATP6V1E2 | inactive: -0.162
CACCAUGGGUGGAGACUUUTT against KIF2B | inactive: 0.226
CGAACUUCCUCAUCGGCAATT against PRLHR | inactive: 0
CAGUUGAUCAUAUUCAGAATT against ZNF645 | inactive: 0.079
AGAGGAUCAAGGUUUUAAATT against APBA2 | active: 1.66
GACAAUACCUGCAAGCUGATT against CXCR5 | inactive: 0.0406
CCAGUAUCCUGAAGGCAGATT against SLC25A11 | inactive: -0.731
GCCGCCAAGUAAAGCCUUATT against HSPB1 | inactive: 0.693
GCAUACCAGUGUUAGCAAATT against UBE2V2 | inactive: 0.556
GGAUAUGAAUUGUCUCCCATT against PSMB2 | inactive: 0
AUCAUGUUAUUGCAGCUGATT against CTSG | inactive: -0.47
GGUACUUGCUAUAAUGGAATT against TRAF5 | inactive: 0.598
CAGCAUACAUGUUUAGUGATT against TRPC6 | inactive: -0.527
GCUCCAUCAGGAUUCUCAATT against KCNQ4 | inactive: 0.583
CUGCGACCAUGGUAUAGUATT against DKC1 | inactive: -0.203
CACGUGAUCUCAUACAGGATT against ZNF613 | inactive: -0.189
GGCUAGAUUUUUAUAAGCATT against ZNF155 | inactive: 0.698
CCAAUCACGUGGAAGUUAATT against APOBEC1 | inactive: -0.323
GGAUCAAGCAUGAAUUGCATT against CFL1 | inactive: 0.685
CUAGAUCCUUCAAAUCUGATT against HCCS | inactive: 0.00254

Sequence | median seed-adjusted z-score
GGAAGAGGCUGAAAAGUUUTT against TTC7B | inactive: 0.0338
GUGCAUUGCCUGAAACUCATT against NXF5 | inactive: -0.396
CGAACGAUCUGAGGAUCAATT against TXNDC3 | inactive: -0.649
GGAUCAGCUGGAGAGCUUATT against AURKA | inactive: -0.108
AGUUCCCUUUGUAACCAUATT against ZNF669 | inactive: 0.175
CCAUGUAUGUGCUUCCAUUTT against PCK2 | inactive: 0.318
CCAGCAAUAUCAACGACGATT against ZNF385D | inactive: -0.338
GGGUGUAACAUGUGCGGAATT against ZNF217 | inactive: -0.872
GUACGGGAAUAUAUGCUUATT against CDC7 | inactive: -0.236
GGAUGAGGAGUGGUCAGAUTT against PACSIN3 | inactive: -0.0145
GGUGCAGUUUCGUUGUGAATT against KISS1R | inactive: -0.299
GGGUUACAGCUAAAAUUGUTT against OC90 | inactive: 0.216
ACUUCAAGAUCGUCACGGATT against FABP6 | inactive: 0.122
GCAUAUGAAGUUACUAGCATT against MMP3 | inactive: 0.0592
GUCCAAGAUUUAACAGUGATT against GRPEL2 | inactive: 0.0821
CAUCUGAAGUUGCAGUCUUTT against S1PR4 | inactive: 0.0951
GCACAGAGCUGUCCAAAGATT against ATP6V0D1 | inactive: -0.242
GAGCAUGAGUGGACCAACATT against DAB2IP | inactive: 0.505
GCAGCUAAGUACCUUGUUUTT against MSR1 | inactive: 0.0743
GGUUCUCAUUCAAGGAUCATT against SLC5A12 | inactive: 0.279
GGAGCUCUUUGAUCACAUUTT against HKDC1 | inactive: -0.119
GAAACACCAGUAUCCAGAUTT against ENOSF1 | inactive: 0.496

Looked up above:
CGAACUUCCUCAUCGGCAATT against PRLHR | median seed-adjusted z-score: inactive: 0
GGAUCAAGCAUGAAUUGCATT against CFL1 | median seed-adjusted z-score: inactive: 0.685
GUGCAUUGCCUGAAACUCATT against NXF5 | median seed-adjusted z-score: inactive: -0.396
CACGUGAUCUCAUACAGGATT against ZNF613 | median seed-adjusted z-score: inactive: -0.189
CCAGUAUCCUGAAGGCAGATT against SLC25A11 | median seed-adjusted z-score: inactive: -0.731

(continued)

Sequence | median seed-adjusted z-score
GAAGAACUUUAUAAGGUGATT against SARS | inactive: 0.377
GUGAGAAGUUGGAUGUUUATT against TRIM43 | inactive: -0.4
AGUUCCGGGUGGUCAAGGATT against SYP | inactive: -0.0289
GAACGAGAAGUUUAACUAUTT against TTBK1 | inactive: 0.00054
CGAGGAUUGUAGAAAUCUATT against GCH1 | inactive: 0.569
GUUCCGUACAGAUAAAGGATT against SAE1 | inactive: 0.831
GCACUGUGCAGGUUGAAAATT against 6-Sep | inactive: -0.732
CGUGGAAAUUUUGACUGGATT against GALNT3 | inactive: -0.0426
CGACAUCAAAACACGAAAATT against RNASEL | inactive: 0
GGCUUAACUUUAGUGUUGATT against PRDM2 | active: 1.12
GGACAAGAUUGGUGGGUUATT against PEX1 | inactive: 0.227
GAAUAUUGGUUCUUCGUAATT against LRGUK | inactive: 0.166
CCAGUGCAAUCAGCAGAGATT against ATP5G3 | inactive: 0
CAAUCCCUCAAGAUUUUAATT against PSMA7 | inactive: 0.0726
CCAAGUCCUUGGUAAUCUUTT against MCCC1 | inactive: 0.298
GGACGGUACUACAGUGUAATT against HDAC8 | inactive: 0.835
CCACCUCUACCAAACAUUUTT against IL2RG | inactive: -0.155
GAACUAUGAUAUCCAGUAUTT against ARG2 | inactive: -0.796
GAGGCUCGGUAAUCAAUGATT against DERL1 | inactive: 0.22
CUACAAAAGUUUUUCCAGATT against COX7A2L | inactive: 0
CCAUCGUUUUGGUCUUGUATT against VN1R2 | inactive: -0.151
GCAGGUAAAUUGGUGGAUUTT against SLC16A7 | inactive: 0

Sequence | median seed-adjusted z-score
CCUUUUCCGUUGGAACCGATT against CAMTA2 | inactive: 0.152
CUAAUUUACUAUUACGCUUTT against F2R | inactive: -0.392
CAACAGUUGUCAUCUAUGUTT against GPN1 | inactive: -0.14
GCUGUUAAACGGUAUCGGATT against CREBZF | inactive: 0.424
GCAUAAUGAGAAGCGGUGATT against UPRT | inactive: -0.441
CAACUAUACUAUGUGCAAUTT against CALCR | inactive: -0.404
GGAAAUUGGAUACAACUGUTT against STK4 | inactive: 0.652
CAACCCUACCAAUGCUACUTT against PTP4A2 | active: -1.45
AGGAAUCCCUUGUCCUUUUTT against NFKBIE | inactive: -0.452
AGGGACUGGUGGUCAAGAUTT against NTRK1 | inactive: -0.223
CCCGCGAAGUUUUACGGAUTT against HOXD8 | inactive: -0.883
GGAACAAAUCCAUAAGUGUTT against TRIM10 | inactive: -0.0934
CAUGAGAAGUAUGACAACATT against GAPDH | inactive: 0.479
CCAUCGGCUUGAUCAGGAATT against JUP | inactive: 0.15
CGAUCAGACCUCAAGGACATT against SCARF1 | inactive: -0.324
GCAUGGUCAUAGGCCUGAUTT against CYB561 | inactive: 0
GCUCUGUCCGUAUCGAUCATT against RNASEN | inactive: 0.524
GAGAUGCUGCGAUUCUACATT against ACBD4 | inactive: -0.363
UCAGCUUCAGCUUAACUGATT against TUBA1B | inactive: 0.0888
ACCUCACCAAGAUCACAAATT against SHBG | inactive: 0.587
UGAAGAACCUGGACGCCAATT against CCL24 | inactive: 0
GGGCACGGGUGAUAUGAAUTT against CTDP1 | active: -2.29

Sequence | median seed-adjusted z-score
CAUAGGAACUUUUCACUUATT against MARCKS | inactive: 0.379
GCAUGAAUGUGACUGAACUTT against RHOXF2 | inactive: -0.331
CAGGAAGUCUGACCAAUAATT against LPL | inactive: 0.389
GCCUGCUUCUGUAACCUGATT against WISP1 | inactive: -0.0121
CCAGUUGACUUUUACCGAUTT against SLIT2 | inactive: -0.592
CCAGCAAGUAGAUAUAGAATT against COIL | inactive: 0
GAAUGAUCCUUUCCUCUCATT against CREB3L2 | inactive: -0.192
GAAUUAGCAUCAACACCUUTT against GUCY1A2 | inactive: -0.186
AUAAUUACGGUGACUCUAATT against KIF25 | inactive: -0.0031
GGACUAUUUCCUCAAGUUUTT against TRIM47 | inactive: 0.707
CAGAAACUUUCGAACAAAATT against POU3F1 | inactive: 0.279
CGACUUCUACUACAUGGAUTT against CHST8 | inactive: 0.341
CAACGUAAUAGUUCUGGAATT against IL2 | inactive: 0.0694
CAGUGACCACUGAUACUAATT against CYP2C8 | inactive: 0.371
GGUGAACACCAUUACCGAATT against MAP3K5 | inactive: -0.285
GGAACAUUUUCGUUGCUGUTT against IFNGR2 | inactive: 0.148
CCACAAGAGUUCGAACUCATT against ZFX | inactive: -0.581
AGCUCAAACUUUGAGAGCATT against SOX4 | inactive: -0.188
GCAGGAUAAUAAAAACUUGTT against EPHA10 | inactive: 0.502
AGUUCAUUCUGACAGAUGATT against VDR | inactive: -0.031
